# Test results: patent US20240108662A1, “ENGINEERED CELLS FUNCTIONALIZED WITH IMMUNE CHECKPOINT MOLECULES AND USES THEREOF” (The University of North Carolina at Chapel Hill, priority 2020, published 2024)
# B1: Q5U458 (protein, UniProt Q5U458 1-559, looked up)
# chain: MATALSEEELDNEDYYSLLNVRREASSEELKAAYRRLCMLYHPDKHRDPELKSQAERLFNLVHQAYEVLSDPQTRAIYDIYGKRGLEMEGWEVVERKRTPAEIREEFERLQREREERRLQQRTNPKGTISVGVDATDLFDRYDEEYEDVSGSGFPQIEINKMHISQSIEAPLTATDTAILSGSLSTQNGNGGGSVNFALRRVTSAKGWGELEFGAGDLQGPLFGLKLFRNLTPRCFVTTNCALQFSSRGIRPGLTTVLARNLDKNTVGYLQWRWGIQSAMNTSIVRDTKTCHFTVALQLGIPHSFALISYQHKFQDDDQTRVKGSLKAGFFGTIVEYGAERKISRHSVLGAAVSIGVPQGVSLKVKLNRASQTYFFPIHLTDQLLPSAVFYATVGPLVVYLAVHRLIIRPYLRAQKEKELEKQRENTASDILQKKQEAEAAVRLMQESVRRIIEAEESRMGLIIVNAWYGKFVNDKSRKNEKVKVIDVTVPLQCLVKDSKLILTEASKAGLPGFYDPCVGEEKSLRVLYQFRGVLHQVMVPDSEALRIPKQSHRIDTDG
# modifications: full-length
# B2: Q3UUQ7 (protein, UniProt Q3UUQ7 1-922, looked up)
# chain: MFLHSVNLWNLAFYVFMVFLATLGLWDVFFGFEENKCSMSYMFEYPEYQKIELPKKLTKRYPAYELYLYGEGSYAEEHKILPLTGIPVLFLPGNAGSYKQVRSIGSIALRKAEDIDFKYHFDFFSVNFNEELVALYGGSLQKQTKFVHECIKAILKLYKGQEFAPTSVAIIGHSMGGLVARALLTLKNFKQDLINLLVTQATPHVAPVMPLDRFITEFYMNVNNYWILNARHINLTTLSVAGGFRDYQVRSGLTFLPKLSHYTSALSVVSSAVPKTWVSTDHLSIVWCKQLQLTTIRAFFDLIDADTKQITQKPKKKLSVLNHHFIRHPAKQFEENPSIISDLTGTSMWVPVKVSRWSYVAYNESDKIYFAFPLANHRKIYTHAYCQSTMLDTNSWIFGCINSTSMCRQGVDLSWKAELLPTIKSLTLRLQDYPSLSHIVVYVPSVHGSKFVVDCEFFKKEARSMQLPVTHLFSFGLSSRKVTLNTNGLYYNIELLNFGQIYQAFKVNVVSKCTGSKEEITSIYKLHIPWSYEDSLTIAQVPSSTDISLKLHVAQPENDSHVALLKMYTSSDCQYEVTIKTSFPQILGQVVRFHGGALPAYVVSSILLAYGGQLYSLLSTGYCLEYSTILDKEAKPYKVDPFVIMIKFLLGYKWFKELWDAVLLPELDAIVLTSQSMCFPLVSLILFLFGTCTAYWSGLLSSTSVQLLSSLWLALKRPAELPKDIKVMSPDLPVLTVVFLIVSWTTCGALAILLSYLYYVFKVVHLQASLTTFKNNQPVNPKHSRRSEKKSNHHKDSAVQSLRLCANDAEDSLRMHSTVINLLTWVVLLSMPSLIYWLKNLRYYFKLSPDPCKPLAFLLIPAIAILGNTHTVSVKSSKLLKTVSQFPLPLAVGVIAFGSSHLYRVPCFVIIPLVFHALCNFM
# modifications: full-length
# B3: Q8BPS4 (protein, UniProt Q8BPS4 1-441, looked up)
# chain: MGGLRLLAVALTCSCWWPQGGQGKTLRGSFSSAAARDAQGQSIGHFEFHGDHALLCVRINNVAVAVGKEAKLYLFQAQEWLKLLESSPGYSCSERLARAQLTVTVTQTEHNLTVSQLPAPQTWRVFYADKFTCRDDSESPQGEEIPFEMVLLNPDAEGNPLDHFSARESGLHEFFFLLVLVYFVTACIYAQSLWQAMKKGGPMHTILKVLTTALLLQAASALANYIHLSRYSRDGLGVPLIGSLAEVFDIASQIQMLYLLLSLCMGWTIVRMKKSQSRPLQWDSTPASTGIAVFIVITQSILLLWEQFEDTSHHSAHSHRSLAGLLLIVLRICLALSLGCGLYQVITVERSALKREFYITFAKGCILWFLCQPALACIAVAFNDYQRDKLITVGVILCQAVAMVILYRLFLSHSLYWEVSSLSSVTLPLTISSAHRGRPHF
# modifications: full-length
# B4: P55096 (protein, UniProt P55096 1-659, looked up)
# chain: MAAFSKYLTARNTSLAGAAFLLLCLLHKRRRALGLHGKKSGKPPLQNNEKEGKKERAVVDKVFLSRLSQILKIMVPRTFCKETGYLLLIAVMLVSRTYCDVWMIQNGTLIESGIIGRSSKDFKRYLFNFIAAMPLISLVNNFLKYGLNELKLCFRVRLTRYLYEEYLQAFTYYKMGNLDNRIANPDQLLTQDVEKFCNSVVDLYSNLSKPFLDIVLYIFKLTSAIGAQGPASMMAYLLVSGLFLTRLRRPIGKMTIMEQKYEGEYRYVNSRLITNSEEIAFYNGNKREKQTIHSVFRKLVEHLHNFIFFRFSMGFIDSIIAKYVATVVGYLVVSRPFLDLAHPRHLHSTHSELLEDYYQSGRMLLRMSQALGRIVLAGREMTRLAGFTARITELMQVLKDLNHGRYERTMVSQQEKGIEGAQASPLVPGAGEIINTDNIIKFDHVPLATPNGDILIQDLSFEVRSGANVLICGPNGCGKSSLFRVLGELWPLFGGRLTKPERGKLFYVPQRPYMTLGTLRDQVIYPDGKEDQKKRGISDQVLKEYLDNVQLGHILEREGGWDSVQDWMDVLSGGEKQRMAMARLFYHKPQFAILDECTSAVSVDVEDYIYSHCRKVGITLFTVSHRKSLWKHHEYYLHMDGRGNYEFKKITEDTVEFGS
# modifications: full-length
# B5: Q91W34 (protein, UniProt Q91W34 1-466, looked up)
# chain: MADAASLRAPLCTEQFGSGAPRGCSAAADGSLQWDGARRWGWLSRAPIAKPGQHAGGGGGPWAALTALSGLRSVLLPQGFPDSVSPDYLPYQLWDSVQAFASSLSGSLATQAVLQGLGVGNAKASVSAATSTWLVKDSTGMLGRIILAWWKGSKLDCNAKQWRLFADILNDVAMFLEIMAPMYPIFFTMTVSTSNLAKCIVGVAGGATRAALTMHQARRNNMADVSAKDSSQETVVNLAGLLVSLLMLPLVSDCPSLSLGCFVLLTALHIYANYRAVRALVLETLNESRLQLVLEHFLQRGEVLEPASANQMEPLWTGFWPSLSLSLGVPLHHLVSSVSELKQLVEGHHEPYLLCWNKSRNQVQVALSQEAGPETVLRAATHGLILGALQEDGPLPGELAELRHQVQADPKKESWILVRETHQVLDTLFPKFLKGLQAAGWKTEKHHLEVDEWRATWPLSPEKKVL
# modifications: full-length
# B6: Q9DBU0 (protein, UniProt Q9DBU0 1-606, looked up)
# chain: MTVLGYPRSWSCHCLPVLILLLGIGHGPWVEGVTHYKPGDPVILYVNKVGPYHNPQETYHYYQLPVCCPEKIRHKSLSLGEVLDGDRMAESLYEIRFRENVEKRILCHMQLSSAQVEQLRQAIEELYYFEFVVDDLPIRGFVGYMEESGFLPHSHKIGLWTHLDFHLEFHGDRIIFANVSVRDVKPHSLDGLRSDELLGLTHTYSVRWSETSVEHRSDRRRGDDGGFFPRTLEIHWLSIINSMVLVFLLVGFVAVILMRVLRNDLARYNLDEETSSGGSSDDFDQGDNGWKIIHTDVFRFPPYRGLLCAVLGVGAQFLALGTGIIVMALLGMFNVHRHGAINSAAILLYALTCCISGYVSSHFYRQIGGERWVWNIILTSSLFSVPFFLTWSVVNSVHWANGSTQALPATTILLLLTVWLLVGFPLTVIGGIFGKNNASPFDAPCRTKNIAREIPPQPWYKSTVIHMTVGGFLPFSAISVELYYIFATVWGREQYTLYGILFFVFAILLSVGACISIALTYFQLSGEDYRWWWRSVLSVGSTGLFIFLYSVFYYARRSNMSGAVQTVEFFGYSLLTGYVFFLMLGTISFFSSLKFIRYIYVNLKMD
# modifications: full-length
# Experiment: Proteomic analysis of native murine pancreata and decelled pancreatic ECM (Table 1)
# Parameters: species or system mouse
# Settings: abundance of the listed protein in decelled pancreatic ECM
row,Molecule,Pancreatic ECM: Mean of log2(intensities) [a.u.]
1,B1,26.03
2,B2,26.09
3,B3,26.07
4,B4,24.94
5,B5,26.01
6,B6,25.42

# Same assay, conditions: abundance of the listed protein in native murine pancreas tissue
row,Molecule,Native pancreas tissue: Mean of log2(intensities) [a.u.]
1,B1,22.08
2,B2,22.01
3,B3,22.09
4,B4,21.01
5,B5,21.99
6,B6,21.68
